{"source": "PubChem BioAssay AID1508588 – Peter MacCallum Cancer Centre | 2020", "purpose": "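Genome-wide search for knock-downs that heighten vemurafenib action in melanoma cells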 (primary screen)", "cell system": "human WM266.4 melanoma cells (BRAF V600 mutant)", "knock-down reagent": "siRNA pool against human genes, 40 nM", "timing": "96 h from transfection to read-out", "treatment": "vemurafenib 300 nM (about IC25), added 48 h after transfection, for 48 h; comparison arm got DMSO vehicle only", "detection": "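Ratios to non-targeting siRNA for cell gain, counted as DAPI nuclei after minus before drug and averaged over two replicates, and for absorbance-read medium lactate per cell; both binned into fold-change classes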", "reading the numbers": "cell gain with vemurafenib: higher = more cell gain than with non-targeting siRNA; lactate per cell with vemurafenib: higher = more lactate made per cell", "call rule": "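a knock-down counts as enhancing when its fold-change classes with vehicle and with vemurafenib, taken together, show a stronger drug effect on cell gain or lactate per cell; exact class pairs not stated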", "calls": "active = enhances vemurafenib effect; inactive = no enhancement seen", "note": "The whole screen tested about 18,000 reagents; this is a part drawn at random. 790 of all reagents (4.4%) count as active. 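Calls rest on a combination of fold-change classes in drug and vehicle arms, not all shown here.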"}
The opening 2 entries as a preview:
{"target":"FGF13 (GeneID 2258)","cell gain with vemurafenib":0.98,"lactate per cell with vemurafenib":1.2,"outcome":"inactive"}
{"target":"ELFN2 (GeneID 114794)","cell gain with vemurafenib":0.22,"lactate per cell with vemurafenib":1.72,"outcome":"inactive"}

The list itself, from the start:
{"target":"FGF13 (GeneID 2258)","cell gain with vemurafenib":0.98,"lactate per cell with vemurafenib":1.2,"outcome":"inactive"}
{"target":"ELFN2 (GeneID 114794)","cell gain with vemurafenib":0.22,"lactate per cell with vemurafenib":1.72,"outcome":"inactive"}
{"target":"KIF7 (GeneID 374654)","cell gain with vemurafenib":0.52,"lactate per cell with vemurafenib":1.16,"outcome":"inactive"}
{"target":"FAM216A (GeneID 29902)","cell gain with vemurafenib":0.28,"lactate per cell with vemurafenib":1.14,"outcome":"inactive"}
{"target":"IDH2 (GeneID 3418)","cell gain with vemurafenib":0.69,"lactate per cell with vemurafenib":0.92,"outcome":"inactive"}
{"target":"FRZB (GeneID 2487)","cell gain with vemurafenib":0.84,"lactate per cell with vemurafenib":1.24,"outcome":"inactive"}
{"target":"ARHGEF16 (GeneID 27237)","cell gain with vemurafenib":0.47,"lactate per cell with vemurafenib":1.31,"outcome":"inactive"}
{"target":"AGER (GeneID 177)","cell gain with vemurafenib":0.3,"lactate per cell with vemurafenib":1.27,"outcome":"inactive"}
{"target":"CHM (GeneID 1121)","cell gain with vemurafenib":0.72,"lactate per cell with vemurafenib":0.34,"outcome":"inactive"}
{"target":"PRAMEF8 (GeneID 391002)","cell gain with vemurafenib":1.16,"lactate per cell with vemurafenib":0.97,"outcome":"inactive"}
{"target":"CDKN3 (GeneID 1033)","cell gain with vemurafenib":0.65,"lactate per cell with vemurafenib":1,"outcome":"inactive"}
{"target":"URGCP (GeneID 55665)","cell gain with vemurafenib":1.1,"lactate per cell with vemurafenib":0.68,"outcome":"inactive"}
{"target":"PDE9A (GeneID 5152)","cell gain with vemurafenib":0.34,"lactate per cell with vemurafenib":1.5,"outcome":"inactive"}
{"target":"ZNF710 (GeneID 374655)","cell gain with vemurafenib":0.21,"lactate per cell with vemurafenib":1.36,"outcome":"inactive"}
{"target":"UBAC1 (GeneID 10422)","cell gain with vemurafenib":0.76,"lactate per cell with vemurafenib":1.02,"outcome":"inactive"}
{"target":"MYH7 (GeneID 4625)","cell gain with vemurafenib":0.74,"lactate per cell with vemurafenib":0.68,"outcome":"inactive"}
{"target":"GCSAM (GeneID 257144)","cell gain with vemurafenib":1.07,"lactate per cell with vemurafenib":1.07,"outcome":"inactive"}
{"target":"LOC652759 (retired record) (GeneID 652759)","cell gain with vemurafenib":0.55,"lactate per cell with vemurafenib":0.75,"outcome":"inactive"}
{"target":"GOLGA4 (GeneID 2803)","cell gain with vemurafenib":0.81,"lactate per cell with vemurafenib":0.67,"outcome":"inactive"}
{"target":"KRTAP13-1 (GeneID 140258)","cell gain with vemurafenib":0.75,"lactate per cell with vemurafenib":0.9,"outcome":"inactive"}
{"target":"TLL2 (GeneID 7093)","cell gain with vemurafenib":-0.12,"lactate per cell with vemurafenib":0.69,"outcome":"inactive"}
{"target":"TMEM53 (GeneID 79639)","cell gain with vemurafenib":0.21,"lactate per cell with vemurafenib":1.73,"outcome":"inactive"}
{"target":"TATDN3 (GeneID 128387)","cell gain with vemurafenib":0.63,"lactate per cell with vemurafenib":0.74,"outcome":"inactive"}
{"target":"HGS (GeneID 9146)","cell gain with vemurafenib":0.48,"lactate per cell with vemurafenib":0.95,"outcome":"inactive"}
{"target":"SLC6A11 (GeneID 6538)","cell gain with vemurafenib":0.62,"lactate per cell with vemurafenib":0.99,"outcome":"inactive"}
{"target":"KLHL18 (GeneID 23276)","cell gain with vemurafenib":1.11,"lactate per cell with vemurafenib":0.7,"outcome":"inactive"}
{"target":"SCEL (GeneID 8796)","cell gain with vemurafenib":0.74,"lactate per cell with vemurafenib":1.13,"outcome":"inactive"}
{"target":"CHKA (GeneID 1119)","cell gain with vemurafenib":0.53,"lactate per cell with vemurafenib":1.21,"outcome":"inactive"}
{"target":"MYH8 (GeneID 4626)","cell gain with vemurafenib":0.77,"lactate per cell with vemurafenib":0.83,"outcome":"inactive"}
{"target":"CDC25A (GeneID 993)","cell gain with vemurafenib":0.48,"lactate per cell with vemurafenib":1.43,"outcome":"inactive"}
{"target":"AGTR1 (GeneID 185)","cell gain with vemurafenib":1.41,"lactate per cell with vemurafenib":0.84,"outcome":"inactive"}
{"target":"NFX1 (GeneID 4799)","cell gain with vemurafenib":0.7,"lactate per cell with vemurafenib":1.2,"outcome":"inactive"}
{"target":"MAN2A2 (GeneID 4122)","cell gain with vemurafenib":0.96,"lactate per cell with vemurafenib":0.88,"outcome":"inactive"}
{"target":"COQ5 (GeneID 84274)","cell gain with vemurafenib":0.34,"lactate per cell with vemurafenib":1.23,"outcome":"inactive"}
{"target":"PIGU (GeneID 128869)","cell gain with vemurafenib":0.77,"lactate per cell with vemurafenib":0.54,"outcome":"inactive"}
{"target":"TPPP2 (GeneID 122664)","cell gain with vemurafenib":0.53,"lactate per cell with vemurafenib":1.25,"outcome":"inactive"}
{"target":"PTPN12 (GeneID 5782)","cell gain with vemurafenib":0.22,"lactate per cell with vemurafenib":2.81,"outcome":"inactive"}
{"target":"F9 (GeneID 2158)","cell gain with vemurafenib":0.26,"lactate per cell with vemurafenib":0.84,"outcome":"inactive"}
{"target":"CDC42SE2 (GeneID 56990)","cell gain with vemurafenib":0.65,"lactate per cell with vemurafenib":1.04,"outcome":"inactive"}
{"target":"ATP2A2 (GeneID 488)","cell gain with vemurafenib":0.86,"lactate per cell with vemurafenib":0.78,"outcome":"inactive"}
{"target":"RGR (GeneID 5995)","cell gain with vemurafenib":-0.07,"lactate per cell with vemurafenib":3.37,"outcome":"inactive"}
{"target":"TGIF1 (GeneID 7050)","cell gain with vemurafenib":0.86,"lactate per cell with vemurafenib":0.9,"outcome":"inactive"}
{"target":"SCT (GeneID 6343)","cell gain with vemurafenib":0.13,"lactate per cell with vemurafenib":2.83,"outcome":"inactive"}
{"target":"KLC3 (GeneID 147700)","cell gain with vemurafenib":0.72,"lactate per cell with vemurafenib":0.9,"outcome":"inactive"}
{"target":"PSMC1 (GeneID 5700)","cell gain with vemurafenib":-0.22,"lactate per cell with vemurafenib":4.05,"outcome":"inactive"}
{"target":"BRIP1 (GeneID 83990)","cell gain with vemurafenib":0.33,"lactate per cell with vemurafenib":0.32,"outcome":"active"}
{"target":"CFAP119 (GeneID 90835)","cell gain with vemurafenib":0.66,"lactate per cell with vemurafenib":1.09,"outcome":"inactive"}
{"target":"ZNF223 (GeneID 7766)","cell gain with vemurafenib":0.04,"lactate per cell with vemurafenib":1.31,"outcome":"inactive"}
{"target":"CEP85L (GeneID 387119)","cell gain with vemurafenib":1,"lactate per cell with vemurafenib":1.03,"outcome":"inactive"}
{"target":"SLC51B (GeneID 123264)","cell gain with vemurafenib":0.67,"lactate per cell with vemurafenib":0.38,"outcome":"inactive"}
{"target":"CLEC11A (GeneID 6320)","cell gain with vemurafenib":0.45,"lactate per cell with vemurafenib":1.67,"outcome":"inactive"}
{"target":"CHSY3 (GeneID 337876)","cell gain with vemurafenib":0.51,"lactate per cell with vemurafenib":1.55,"outcome":"inactive"}
